PubChem BioAssay AID1508600 (Functional Genomics Laboratory (NCATS/FGL), 2020)
Hit rate of the full screen: of about 53,000 sequences, about 3,700 (7%) were called active.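 Rule for the calls: active = gene knockdowns whose robust z-score for IL-1 alpha signal is at least 2 or at most -2, so actives lie on both sides; inactive = the rest.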 Some of the results follow.

assay: Components of the Cytosolic LPS Sensing Pathway: Gene Identification via Genome-wide siRNA Screen; conditions: RAW264.7 macrophages, IL-1a HTRF, actives lie on both sides, screened at 100 nM (by protocol), cells primed 5 h with Pam3CSK4 first;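 note: robust z of the log signal after scaling to non-targeting control siRNA wells of the plate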
Outline: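 RAW264.7 mouse macrophages reverse-transfected with single siRNAs (100 nM final) for 48h, primed with Pam3CSK4 for 5 hours, then transfected with LipidA for 24 hour. Supernatant IL-1a read by HTRF; values normalized to negative-control median, log-transformed robust z-scores.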

Row | Sequence | z-score
1 | CCUACUUCCUCCAUUUAGGTT against Ccdc162 | inactive: -1.31
2 | GCCGGAAUGCCCUAAUUUCTT against Olfr684 | inactive: -0.584
3 | GGCGGAACACAUGACUAGGTT against Ilf3 | inactive: 0.189
4 | GGAAAGUUCUAAUGUUCAUTT against Sumo1 | inactive: 1.55
5 | GGGACCUGUCGUCAGACUUTT against Gnb3 | inactive: 0.449
6 | GGCUUUCAAUGAUUAGACATT against Ptpn20 | inactive: 0.341
7 | GGAAUUUCAAGACAAAGGUTT against Skap2 | inactive: -1.24
8 | GGCCAGCAGACUAUUUAUUTT against Derl1 | inactive: 0.304
9 | GCGAACCUACGACUUCUACTT against Chst8 | inactive: 0.998
10 | GGAGGUGGUACAGUAGCAUTT against Olfm4 | inactive: -0.258
11 | GGAGAAGUCAUGAAACAAATT against Prkn | inactive: 0.349
12 | CCCAAAAGAUCACAAAGUUTT against Fbxw13 | inactive: 1.17
13 | CGACUACACAACCUUUGGGTT against Prl4a1 | inactive: 0.232
14 | GGAAUUUCUCUUGGAAUUGTT against Rnft1 | inactive: 1.5
15 | GGCCGUUUUAAGAAAGGCCTT against 5830427D03Rik | inactive: 1.34
16 | CCGAAUACGUGAAGACGCATT against Slc25a1 | inactive: -0.967
17 | GGUCUUGGCACAAUUACAUTT against Actl6a | active: -2.07
18 | GGGUACGGUUCAGUGACAATT against Insyn1 | inactive: -1.25
19 | CGAAAGUGAUCAAAUAGAATT against Zcchc12 | inactive: 0.478
20 | GGAAAACAAUGCCAAAGGGTT against Evx2 | inactive: 0.623
21 | GGUGGCUUCAUUUUAGAAGTT against Xpa | inactive: -0.879
22 | CCCUGCCUUCUGUUGAGAATT against 4930451I11Rik | inactive: 1.13

Exported as tab-separated lines: part of the list above.
Row	Sequence	z-score
14	GGAAUUUCUCUUGGAAUUGTT against Rnft1	inactive: 1.5
15	GGCCGUUUUAAGAAAGGCCTT against 5830427D03Rik	inactive: 1.34

An excerpt of these results, as labelled records:
GGAAUUUCAAGACAAAGGUTT against Skap2
  z-score: inactive: -1.24
GGCCAGCAGACUAUUUAUUTT against Derl1
  z-score: inactive: 0.304

Next entries.

Row | Sequence | z-score
23 | GGAAGUGAGAUGUCACUGATT against Ssc5d | inactive: 0.841
24 | GCCGUAACUCUUGACAAUGTT against Stoml2 | inactive: 0.326
25 | CGGUUUGAGUAUAUUGGAGTT against Sh3d19 | inactive: -0.192
26 | GCGCAUAUUUUAUCAACUCTT against Plcb3 | inactive: 0.38
27 | GGCUCAAGACUUAAAUUCATT against Olfr1100 | inactive: 0.437
28 | CGCCUUUUGGAAACGCAAATT against Sh3bp4 | inactive: -0.165
29 | CCUACAACGGGAAAACCGATT against Itprip | inactive: 0.211
30 | GCCAUUUGUUAGCAGUCACTT against Zfp960 | inactive: -1.59
31 | GGUAUUAGCAUGUACCUUCTT against Olfr138 | inactive: 1.11
32 | GCAGCUUAGUGAUUUGAAATT against Tex21 | inactive: -1.24
33 | GGCGAAGAUUGAAAAAUGCTT against Ube3c | inactive: -0.407
34 | GGAUGACUCAAUAUUUGUCTT against Vmn1r46 | inactive: 0.222
35 | GGAGAUGUAUAAGAAAGCUTT against Rpl5 | inactive: 0.0956
36 | CCUAAGGCUGAAGCGGAGATT against Dusp9 | inactive: 0.893
37 | CCGAUGCGCAAGUAAAAACTT against Tlx1 | inactive: -0.712
38 | GGCAACCAGUUGAAAUAUUTT against Mbnl3 | inactive: 1.05
39 | GGAGAUUGAAGAGUUUGACTT against Rangap1 | inactive: -0.265
40 | GGAGCUGUGGGAGAAGAACTT against Prxl2a | inactive: -1.25
41 | GCUUAAAUUCUGUUCCAACTT against Ddx42 | inactive: 0.0745
42 | GGGUAAAACAAGAAUAUCATT against Nop9 | inactive: 0.246
43 | GGAGAUAAUUGGUUUACAGTT against Vmn1r23 | inactive: -0.647
44 | GGUGCUCAAAGAAUGCAUUTT against Prkar1b | inactive: 0.367

Row | Sequence | z-score
45 | GGCCAUAUACUGGGCUAUATT against Skiv2l | inactive: -0.694
46 | GGCAUAUGCCAGUAUCGGUTT against Defb8 | inactive: -0.595
47 | GGAAGCAGUUCAUGUUAAGTT against Dtx4 | inactive: 1.12
48 | GGUGUAGCUGUGGUGGGUATT against Olfr360 | inactive: -0.142
49 | GGGUUUUAGAAUGAAAUACTT against Emc6 | active: 2.35
50 | GGAGCUAGAGAGAUCUGCATT against Crispld2 | inactive: -1.61
51 | GCCAUAUCAACUCAGAUCATT against Ssh2 | active: 5.04
52 | GGAUCCUGUUAAGAUUAUCTT against Phykpl | inactive: -0.0411
53 | CCAAAUGCGAUUUUAUAACTT against Trps1 | inactive: 0.796
54 | GGGUAAGACAUACAACAUATT against Uevld | inactive: -0.00679
55 | GGUUGGUUUUGUGUUUGCUTT against Pitx1 | inactive: -0.378
56 | GCUAAAGGUGUGGUCUUUGTT against Cyp2d13 | inactive: 1.2
57 | GGAAACUUGUUCAUGAUUGTT against Olfr1023 | inactive: -0.436
58 | GGGUCUGUUAUCUAAUCAGTT against Tk2 | inactive: -0.541
59 | GCCCUUUACAAGGUUCUGUTT against Slc35f3 | inactive: 0.107
60 | CCAUACCUCCAAGUACUUGTT against Itgal | inactive: -1.12
61 | CCAAGUUGUAUUAAAGUCUTT against Nfs1 | inactive: -0.333
62 | GGAGUCUUCAGGAAGAAAGTT against Rars | inactive: -0.406
63 | GCUAAAGGACCUGAAAUGGTT against Gas8 | inactive: 0.347
64 | CCCUAAGUCUCUAAUUGACTT against Serpina3h | inactive: -0.326
65 | GCAGGACAUCUAAAUCUCUTT against Fgfbp1 | inactive: 0.509
66 | GCGUAUUUCCUUUCGGAGUTT against Exoc3 | inactive: 0.116

Looked up above.
z-score, GGGUAAGACAUACAACAUATT against Uevld reads inactive: -0.00679
z-score, GCGUAUUUCCUUUCGGAGUTT against Exoc3 reads inactive: 0.116

Next entries

Row | Sequence | z-score
67 | GGAAGAGGCGCACAUAACGTT against Ccdc125 | inactive: -0.913
68 | GAAUCCCUUCGAGUACGACTT against Fxyd2 | active: 3.17
69 | GGCUGAAUCACCAGAACAUTT against Ikbke | inactive: -0.644
70 | GCCAGUAUGACUAGUCGUGTT against Oprk1 | inactive: -0.302
71 | GGUAGACGGAAUCUAUUUATT against Kcnj15 | inactive: -1.31
72 | GGUGCCUGUCAUUAAAAUGTT against Lenep | inactive: 0.00768
73 | GGGUGAUUUCUUGAGUACATT against Exoc3l4 | inactive: -0.821
74 | GGGUAUUUUGUACGAACACTT against Hacl1 | inactive: 1.11
75 | GGUUCUGUCUAUUCUGCACTT against Slco4a1 | inactive: 1
76 | CGGAUGAGAGGACAUGUAUTT against Tbc1d16 | inactive: -0.624
77 | CGGUGAUAACAGACAUUAATT against Aldh8a1 | inactive: -0.561
78 | GGCGGAAAAAGUGGAUAAUTT against Stx2 | inactive: -0.628
79 | GGACGUGUACAUUGUCAAGTT against Unc5a | active: 2.07
80 | GUUCAUCCCGUAUCACCACTT against Cox6a2 | inactive: -0.892
81 | GGAUUUGAAUUUGAGAGUUTT against Ubr7 | inactive: -0.639
82 | GGAUGUCUGACACAAGUGUTT against Olfr390 | active: 3.42
83 | GGCUCAUCAGAUGUAAACATT against Efcab6 | active: -2.13
84 | GGAAUGAUAGAAAAUGGACTT against Gvin1 | active: -2.16
85 | GCAGUUAAUGCCAACAGUCTT against Ep400 | inactive: -1.59
86 | GCAGAACACCGCUGGAAGUTT against Pard3 | active: 3.14
87 | CCUUGUAACUCAUUACAUCTT against Uqcc1 | inactive: 0.903
88 | GGAACGAAGUCCCUAAAGATT against Csf3 | inactive: -0.44

Row | Sequence | z-score
89 | CCAGAAAGAACCUGCCGUATT against Tdgf1 | inactive: -1.33
90 | GCUUUGCAUAUGAUUCUACTT against Nt5c2 | inactive: 1.86
91 | GGUUUGUCUCAGAGAUUGUTT against Aloxe3 | inactive: 1.46
92 | GGUUAGAAGGAACUGGGCATT against Cyren | inactive: 1.16
93 | GCGAUGACCUUGUUCGGAUTT against F10 | inactive: 0.93
94 | GCCAUAGAGUAUCAGCUGATT against Ttc30a1 | inactive: 0.833
95 | GCUAAUGACGCGAUAGCCUTT against Gtf2b | inactive: 0.546
96 | GGAUGUAAAACCCUAUAAUTT against Zfp974 | inactive: -0.0799
97 | GGCAGAAGUAGAUUUACUCTT against Otulinl | inactive: 0.587
98 | GGUUGAUCCAAAAGAUUACTT against Rp2 | inactive: 0.557
99 | GGAGCAAUUCUACCGCUACTT against Fbxw5 | active: -2.14
100 | GGCCAUUGCAUUCAUUGAUTT against Dusp9 | inactive: -0.951
101 | ACUCCUAUGAGCUAGCUGUTT against Krt42 | inactive: 0.919
102 | ACAAGUUUGAUACCGAAUUTT against Chic1 | inactive: 1.03
103 | GCAAAGGUUUAAGUUAUGATT against L2hgdh | inactive: 0.242
104 | GGAAGAAGUGAAGAUCAUUTT against Acoxl | inactive: -0.629
105 | GGAAACUCCCUGAACCGGATT against Zcrb1 | active: 2.26
106 | GCGAAUGUGUGUAUUCUGGTT against BC055324 | inactive: -0.791
107 | GGCGAAUUAUUGAAAACGUTT against Actr8 | inactive: 0.916
